Experimental findings from the supplement of paper PMC4635364 are described below.

Experiment [1] deals with ReNCell VM. As to the kind of experiment: neuronal differentiation score (DCX+ cell fraction vs untreated, manual image score) (score (-3 to 3)); higher = more neuronal differentiation. The note with it: 2 uM, 2 weeks.
The subject of experiment [2] is ReNCell VM. Description: dopaminergic neuron differentiation score (TH+ cell fraction vs untreated, manual image score) (score (0 to 3)); higher = more TH+ dopaminergic neuron differentiation. The note with it: 2 uM, 4 weeks, BDNF 10 ng/ml + GDNF 10 ng/ml.

Counter-ions that a name gives are not always drawn. Some of the results follow. This data set is noisy: repeats of one test often differ as much as different tests do.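 Cells: ReNCell VM human fetal ventral-midbrain neural progenitors, differentiated mitogen-free. Blinded raters compared doublecortin-stained (early neurons) or tyrosine hydroxylase-stained (dopaminergic neurons) images with untreated wells, where 0 means no change. After repeats and both raters were averaged, compounds scoring 2 or above became hits for retesting.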

In the case of `Oc1ccc(Cl)cc1`, the neuronal differentiation score in experiment [1] (library: Spectrum) was inactive: 0. In experiment [2] (library: Spectrum), the “dopaminergic neuron differentiation score” value is inactive: 0.

In the case of `COC(=O)N1CCN(C(=O)Cc2ccc(Cl)c(Cl)c2)C(CN2CCCC2)C1` (stereo not drawn), in experiment [1] (library: LOPAC), the neuronal differentiation score is inactive: 0. In addition, the “dopaminergic neuron differentiation score” value in experiment [2] (library: LOPAC) was inactive: 0.

Take `COc1ccccc1N1CCNCC1` [1-(2-Methoxyphenyl)piperazine hydrochloride]: in experiment [1] (library: LOPAC), the neuronal differentiation score was inactive: 0. Also, the “dopaminergic neuron differentiation score” value in experiment [2] (library: LOPAC) is inactive: 1.

With `CC(C)C[C@H]1C(=O)N2CCC[C@H]2[C@]2(O)O[C@](NC(=O)[C@@H]3C=C4c5cccc6[nH]c(Br)c(c56)C[C@H]4N(C)C3)(C(C)C)C(=O)N12` [Bromocriptine mesylate], in experiment [1] (library: Tocriscreen), the neuronal differentiation score is inactive: 0. For the same compound, the “dopaminergic neuron differentiation score” value in experiment [2] (library: Tocriscreen) is inactive: 0.

`O=C(O)CC[N+](=O)[O-]`: the neuronal differentiation score in experiment [1] (library: Spectrum) is inactive: 0. Further, the “dopaminergic neuron differentiation score” value in experiment [2] (library: Spectrum) was inactive: 0.

`NC1CCc2cc(O)c(O)cc2C1` (stereo not drawn) [6,7-ADTN hydrobromide]: the neuronal differentiation score in experiment [1] (library: LOPAC) is inactive: 0. Moreover, the “dopaminergic neuron differentiation score” value in experiment [2] (library: LOPAC) was inactive: 0.

`CCCN1C[C@H](CSC)C[C@@H]2c3cccc4[nH]cc(c34)C[C@H]21` [Pergolide methanesulfonate]: the neuronal differentiation score in experiment [1] (library: LOPAC) is inactive: 0. In addition, the “dopaminergic neuron differentiation score” value in experiment [2] (library: LOPAC) was inactive: 0.

As for `COc1ccc2c(c1)[C@]13CCCC[C@@H]1[C@H](C2)N(C)CC3`, in experiment [1] (library: Spectrum), the neuronal differentiation score was inactive: 0. In experiment [2] (library: Spectrum), the “dopaminergic neuron differentiation score” value was inactive: 0.

For `CN1CCc2cc3c(cc2C1O)OCO3` (stereo not drawn) [Hydrastinine hydrochloride], in experiment [1] (library: Phytochemical), the neuronal differentiation score is inactive: 0. Also, the “dopaminergic neuron differentiation score” value in experiment [2] (library: Phytochemical) is inactive: 0.

Turning to `O=C([O-])c1ccccc1-c1c2cc(Br)c(=O)cc-2oc2[c]([Hg+])c([O-])c(Br)cc12.[Na+].[Na+].[OH-]`, the neuronal differentiation score in experiment [1] (library: Spectrum) is inactive: 1. In addition, in experiment [2] (library: Spectrum), the “dopaminergic neuron differentiation score” value was inactive: 0.

For `CC[N+]1(C)CCCC(OC(=O)C(O)(c2ccccc2)c2ccccc2)C1` (stereo not drawn), the neuronal differentiation score in experiment [1] (library: Spectrum) is inactive: 0. Moreover, the “dopaminergic neuron differentiation score” value in experiment [2] (library: Spectrum) was inactive: 1.

Regarding `COc1ccc(C(=O)c2c(C)n(CCN3CCOCC3)c3cc(I)ccc23)cc1`, the neuronal differentiation score in experiment [1] (library: Tocriscreen) was inactive: 0. Moreover, in experiment [2] (library: Tocriscreen), the “dopaminergic neuron differentiation score” value was inactive: 0.

For `CC1NCCc2c1[nH]c1ccccc21` (racemic) [Eleagnine hydrochloride (R,S)], the neuronal differentiation score in experiment [1] (library: Phytochemical) is inactive: 0. Besides, the “dopaminergic neuron differentiation score” value in experiment [2] (library: Phytochemical) was inactive: 0.

With `Cc1onc(O)c1CC(N)C(=O)O` (racemic) [(RS)-AMPA hydrobromide], in experiment [1] (library: Tocriscreen), the neuronal differentiation score is inactive: 0. The “dopaminergic neuron differentiation score” value in experiment [2] (library: Tocriscreen) is inactive: 0.

For `CC(=O)O[C@H]1C[C@H](O[C@H]2[C@@H](O)C[C@H](O[C@H]3[C@@H](O)C[C@H](O[C@H]4CC[C@@]5(C)[C@H](CC[C@@H]6[C@@H]5C[C@@H](O)[C@]5(C)[C@@H](C7=CC(=O)OC7)CC[C@]65O)C4)O[C@@H]3C)O[C@@H]2C)O[C@H](C)[C@H]1O[C@@H]1O[C@H](CO)[C@@H](O)[C@H](O)[C@H]1O`, the neuronal differentiation score in experiment [1] (library: Spectrum) was inactive: 0. In addition, the “dopaminergic neuron differentiation score” value in experiment [2] (library: Spectrum) is inactive: 0.

Regarding `CCCCCC[C@H]1C(=O)O[C@H](C)[C@H](NC(=O)c2cccc(NC=O)c2O)C(=O)O[C@@H](C)[C@@H]1OC(=O)CC(C)C` [Antimycin A], in experiment [1] (library: Prestwick), the neuronal differentiation score was inactive: 0. Moreover, the “dopaminergic neuron differentiation score” value in experiment [2] (library: Prestwick) is inactive: 0.

Regarding `Oc1cc2c(cc1O)[C@H]1c3ccccc3CN[C@@H]1CC2` (racemic) [Dihydrexidine hydrochloride], the neuronal differentiation score in experiment [1] (library: Tocriscreen) was inactive: -2. Moreover, in experiment [2] (library: Tocriscreen), the “dopaminergic neuron differentiation score” value is inactive: 0.

Consider `C[N+]1(C)[C@@H]2CC[C@H]1C[C@@H](OC(=O)C(CO)c1ccccc1)C2` (stereo partly drawn) [Atropine methyl nitrate], for which the neuronal differentiation score in experiment [1] (library: LOPAC) is inactive: 0. Also, in experiment [2] (library: LOPAC), the “dopaminergic neuron differentiation score” value was inactive: 0.

As for `CCNC1(c2cccs2)CCCCC1=O` (stereo not drawn) [Tiletamine hydrochloride], the neuronal differentiation score in experiment [1] (library: Prestwick) is inactive: 0. For the same compound, in experiment [2] (library: Prestwick), the “dopaminergic neuron differentiation score” value is inactive: 0.

Consider `CC(=O)[C@H]1CC[C@H]2[C@@H]3CC[C@@H]4C[C@H](O)CC[C@]4(C)[C@H]3CC[C@]12C`, for which the neuronal differentiation score in experiment [1] (library: Spectrum) was inactive: 0. For the same compound, the “dopaminergic neuron differentiation score” value in experiment [2] (library: Spectrum) was inactive: 0.

Consider `C[N+]1(C)[C@@H]2CC[C@H]1C[C@@H](OC(=O)C(CO)c1ccccc1)C2` (stereo partly drawn) [Methylatropine nitrate], for which the neuronal differentiation score in experiment [1] (library: Prestwick) was inactive: 0. In addition, the “dopaminergic neuron differentiation score” value in experiment [2] (library: Prestwick) was inactive: 0.

On to `COc1ccc(C(=O)N2CCCC2=O)cc1`, for which the neuronal differentiation score in experiment [1] (library: Spectrum) was inactive: 0. In addition, the “dopaminergic neuron differentiation score” value in experiment [2] (library: Spectrum) was inactive: 0.

Turning to `CNCC(O)c1ccc(O)c(OC)c1` (stereo not drawn) [Metanephrine hydrochloride DL], in experiment [1] (library: Phytochemical), the neuronal differentiation score is inactive: 0. Also, the “dopaminergic neuron differentiation score” value in experiment [2] (library: Phytochemical) is inactive: 0.

For the compound `C=C[C@H]1CN2CC[C@H]1C[C@H]2[C@H](O)c1ccnc2ccccc12` [(-)-Cinchonidine], in experiment [1] (library: Phytochemical), the neuronal differentiation score is inactive: 0. The “dopaminergic neuron differentiation score” value in experiment [2] (library: Phytochemical) is inactive: 0.

On to `N#C[C@H](O[C@@H]1O[C@H](CO[C@@H]2O[C@H](CO)[C@@H](O)[C@H](O)[C@H]2O)[C@@H](O)[C@H](O)[C@H]1O)c1ccccc1` [Amygdalin], for which the neuronal differentiation score in experiment [1] (library: Phytochemical) was inactive: 0. Also, in experiment [2] (library: Phytochemical), the “dopaminergic neuron differentiation score” value was inactive: 0.

As to `CCC1(c2cccc(O)c2)CCCCN(C)C1` (stereo not drawn) [Meptazinol hydrochloride], in experiment [1] (library: Prestwick), the neuronal differentiation score is inactive: 0. Further, the “dopaminergic neuron differentiation score” value in experiment [2] (library: Prestwick) was inactive: 0.

Consider `CC(C)(C)c1cc(C=C(C#N)C#N)cc(C(C)(C)C)c1O` [Tyrphostin A9], for which the neuronal differentiation score in experiment [1] (library: LOPAC) is inactive: 0. The “dopaminergic neuron differentiation score” value in experiment [2] (library: LOPAC) was inactive: 0.

On to `CCC(C)C(=O)O[C@@H]1C[C@@]2(C)[C@H](c3ccoc3)OC(=O)CC23OC2(C)O[C@]14[C@]1(C)[C@@H](CC(=O)OC)C5(C)CC1(O)[C@](O)(C5OC(=O)C1(C)OC1C)[C@@H](OC(C)=O)[C@]34O2` (stereo partly drawn), for which the neuronal differentiation score in experiment [1] (library: Spectrum) was inactive: 0. In experiment [2] (library: Spectrum), the “dopaminergic neuron differentiation score” value is inactive: 0.

For `C[C@]12CC[C@H]3[C@@H](CCC4=CC(=O)CC[C@@]43C)[C@@H]1CC[C@H]2O`, the neuronal differentiation score in experiment [1] (library: Spectrum) was inactive: 0. Besides, in experiment [2] (library: Spectrum), the “dopaminergic neuron differentiation score” value is inactive: 0.

Consider `COc1cc2c(cc1OC)[C@@H]1C(=O)c3ccc4oc(C(C)C)cc4c3O[C@@H]1CO2`, for which the neuronal differentiation score in experiment [1] (library: Spectrum) is inactive: 0. Further, in experiment [2] (library: Spectrum), the “dopaminergic neuron differentiation score” value was inactive: 0.

On to `NC(=O)CI` [Iodoacetamide], for which the neuronal differentiation score in experiment [1] (library: LOPAC) is inactive: 0. Further, the “dopaminergic neuron differentiation score” value in experiment [2] (library: LOPAC) is inactive: 0.

Regarding `OC1CCCCC1N1CCC(c2ccccc2)CC1` (stereo not drawn), the neuronal differentiation score in experiment [1] (library: Spectrum) is inactive: 0. For the same compound, the “dopaminergic neuron differentiation score” value in experiment [2] (library: Spectrum) is inactive: 0.

On to `C=CCN1CC[C@]23c4c5ccc(O)c4O[C@H]2C(=O)CC[C@@]3(O)[C@H]1C5`, for which the neuronal differentiation score in experiment [1] (library: Spectrum) is inactive: 0. The “dopaminergic neuron differentiation score” value in experiment [2] (library: Spectrum) was inactive: 0.

Consider `Cc1ncc(CNC(=O)N(CCCl)N=O)c(N)n1`, for which the neuronal differentiation score in experiment [1] (library: Spectrum) was inactive: 0. In addition, the “dopaminergic neuron differentiation score” value in experiment [2] (library: Spectrum) is inactive: 0.
